Test results as given in patent US20220056075A1, “METHOD FOR TREATING OPIOID USE DISORDER” (THE ADMINISTRATORS OF THE TULANE EDUCATIONAL FUND, priority 2019, published 2022).
Where two headings read alike, the source gives them in different places.

Columns and labels:
[1] = system: rats trained to discriminate morphine from vehicle; assay: Drug discrimination (DD), morphine-trained rats; details: for ED50: Rattus norvegicus
Procedure: Drug Discrimination (DD): Rats were food deprived to approximately 85% of the weight of free feeding cohorts to establish operant responding for 45 mg food pellets (Bioserve, Frenchtown, N.J.) in standard operant chambers (MED Associates, St. Albans, Vt.). Rats were fed 10-20 g of standard food after daily DD sessions, and ˜3× the daily amount on weekends to maintain appropriate weight. DD consisted of 3 phases (Krivsky et al., 2006). In phase 1, rats were trained to lever press for food at a fixed ratio (FR) level 1 (i.e., 1 lever press=1 food pellet) using 2 levers with stimulus lights located above each lever and a food hopper between the levers during 120 min sessions. Responding on either lever extinguished the light and delivered a food pellet. […] Once >20 pellets were earned at FR9, sessions were shortened to 20 min and response requirements were set at FR10 and the left or right lever reinforced responding on alternate days. Once >20 pellets were earned on each lever at FR10, rats started phase 2 of DD training.
Only responses on the correct lever were reinforced and responses on the incorrect lever reset the response requirement on the correct lever. Criteria to move to phase 3 were as follows: >20 pellets per session, >90% injection appropriate lever responding, and <9 responses on the incorrect lever before the first food pellet reward.
Two paradigms were utilized to generate substitution curves: cumulative within-session and bolus between-session injections.
During substitution tests, both levers actively delivered food at an FR10 schedule. […] Doses were increased in ¼ log increments, with injections every 20 min followed 15 minutes later by DD sessions lasting 5 min each. […] The advantage of this procedure was that an entire dose-response was generated in one session.
Statistics: PRISM software (GraphPad, San Diego, Calif.) was used for one-way analysis of variance (ANOVA) with Newman-Keuls post-hoc comparisons to compare CPP groups, locomotor effects, hot plate, and DD response rates.

rats = details: data reproduced from Zadina et al. (2016); cited from earlier work

CN1CC[C@]23c4c5ccc(O)c4O[C@H]2[C@@H](O)C=C[C@H]3[C@H]1C5.O=S(=O)(O)O [Morphine, Morphine sulfate, reference compound]
ED50 ([1]; iv, read-out: ED50 (morphine-appropriate responding), bolus injections made between sessions, i.v., value (SEM)): 0.879 mg/kg
ED50 ([1]; iv, read-out: ED50 (morphine-appropriate responding), cumulative injections within a single session, i.v., value (SEM)): 0.701 mg/kg
ED50 ([1]; sc, read-out: ED50, responding on the drug-paired lever, subcutaneous injection): 1.25 mg/kg
ED50 (morphine-appropriate responding) ([1]; bolus injections made between sessions, i.v., value (SEM), sulfate): 0.88 mg/kg
antinociceptive ED50 (rats): 1.27 mg/kg
